The entries are a selection whose mix differs from that of the whole data set. At the low end of the ranking the order means little.

By UniProt entry, the sequences of proteins in these tests, tags left out. Where a name states a change or a piece, a line headed by the entry shows the natural chain unless it says otherwise.
UniProt P41161: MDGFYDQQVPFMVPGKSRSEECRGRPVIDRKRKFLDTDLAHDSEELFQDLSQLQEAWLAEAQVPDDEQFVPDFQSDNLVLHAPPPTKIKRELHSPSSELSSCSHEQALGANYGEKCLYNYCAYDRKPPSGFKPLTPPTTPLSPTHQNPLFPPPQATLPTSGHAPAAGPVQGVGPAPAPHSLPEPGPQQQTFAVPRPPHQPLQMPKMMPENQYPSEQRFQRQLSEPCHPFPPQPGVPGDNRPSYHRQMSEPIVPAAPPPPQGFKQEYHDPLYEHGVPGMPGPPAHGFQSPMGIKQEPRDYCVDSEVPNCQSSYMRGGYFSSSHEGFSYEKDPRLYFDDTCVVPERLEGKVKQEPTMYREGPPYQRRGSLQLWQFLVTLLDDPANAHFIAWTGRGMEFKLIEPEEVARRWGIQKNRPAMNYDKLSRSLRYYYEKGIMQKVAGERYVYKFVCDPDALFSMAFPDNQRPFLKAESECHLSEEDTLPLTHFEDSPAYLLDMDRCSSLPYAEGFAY
UniProt Q99607: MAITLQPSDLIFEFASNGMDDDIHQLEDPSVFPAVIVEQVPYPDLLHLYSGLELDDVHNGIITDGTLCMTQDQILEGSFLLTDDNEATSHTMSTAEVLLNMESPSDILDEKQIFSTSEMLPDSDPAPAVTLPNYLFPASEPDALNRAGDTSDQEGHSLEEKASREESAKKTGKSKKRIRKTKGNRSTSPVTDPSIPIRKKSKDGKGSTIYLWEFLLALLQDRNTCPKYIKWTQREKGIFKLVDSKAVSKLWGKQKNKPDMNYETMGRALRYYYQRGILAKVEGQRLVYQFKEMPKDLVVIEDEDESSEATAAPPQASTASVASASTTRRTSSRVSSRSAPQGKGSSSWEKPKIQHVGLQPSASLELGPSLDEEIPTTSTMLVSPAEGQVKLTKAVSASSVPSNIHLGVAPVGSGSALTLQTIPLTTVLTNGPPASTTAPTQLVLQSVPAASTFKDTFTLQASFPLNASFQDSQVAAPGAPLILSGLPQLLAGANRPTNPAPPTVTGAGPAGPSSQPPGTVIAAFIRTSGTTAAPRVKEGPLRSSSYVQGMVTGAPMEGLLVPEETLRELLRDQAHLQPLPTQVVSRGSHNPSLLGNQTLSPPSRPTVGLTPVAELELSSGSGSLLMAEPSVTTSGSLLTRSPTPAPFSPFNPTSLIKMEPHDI
UniProt Q01892: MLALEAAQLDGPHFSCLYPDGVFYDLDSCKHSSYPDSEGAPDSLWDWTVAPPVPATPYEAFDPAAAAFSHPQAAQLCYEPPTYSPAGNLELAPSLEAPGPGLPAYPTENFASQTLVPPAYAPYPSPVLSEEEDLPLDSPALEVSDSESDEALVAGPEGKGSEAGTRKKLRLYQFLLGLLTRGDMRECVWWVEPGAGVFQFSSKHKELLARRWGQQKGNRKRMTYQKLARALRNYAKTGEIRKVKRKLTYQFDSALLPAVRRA

Drawing on PMC7862700, this text covers binding signal for 21 sequences.

Targets include ETV5 (UniProt P41161); ELF4 (UniProt Q99607); SPIB (UniProt Q01892).
Holding throughout (assay): DAPPL (digital affinity profiling via proximity ligation, sequencing)
Settings in all cases: 10 mM Tris-HCl pH 7.5, 50 mM NaCl, 1 mM DTT, 4% glycerol, room temperature, 30 min; GST-TFs on glutathione beads, 16-mer random dsDNA library, 0.1% …; high values mean tight binding; double strand, one strand shown; scale: fold enrichment (6-mer frequency, TF over GST control)

For a further assay, the target named is T1, FLI1 (UniProt Q01543).
T1 sequence: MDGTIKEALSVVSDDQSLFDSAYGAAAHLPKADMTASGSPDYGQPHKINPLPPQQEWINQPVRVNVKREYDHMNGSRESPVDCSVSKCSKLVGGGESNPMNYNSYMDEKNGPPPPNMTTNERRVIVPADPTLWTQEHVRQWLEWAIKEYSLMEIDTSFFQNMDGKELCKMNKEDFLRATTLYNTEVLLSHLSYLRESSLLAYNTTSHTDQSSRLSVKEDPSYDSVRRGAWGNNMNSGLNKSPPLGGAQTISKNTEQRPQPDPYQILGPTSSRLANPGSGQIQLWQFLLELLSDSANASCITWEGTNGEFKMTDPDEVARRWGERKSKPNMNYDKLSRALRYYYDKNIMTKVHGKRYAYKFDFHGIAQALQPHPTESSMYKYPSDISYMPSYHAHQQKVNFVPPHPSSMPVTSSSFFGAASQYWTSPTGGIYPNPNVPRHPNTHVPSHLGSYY

The target in another assay is T2, ETV2 (UniProt O00321).
T2 sequence: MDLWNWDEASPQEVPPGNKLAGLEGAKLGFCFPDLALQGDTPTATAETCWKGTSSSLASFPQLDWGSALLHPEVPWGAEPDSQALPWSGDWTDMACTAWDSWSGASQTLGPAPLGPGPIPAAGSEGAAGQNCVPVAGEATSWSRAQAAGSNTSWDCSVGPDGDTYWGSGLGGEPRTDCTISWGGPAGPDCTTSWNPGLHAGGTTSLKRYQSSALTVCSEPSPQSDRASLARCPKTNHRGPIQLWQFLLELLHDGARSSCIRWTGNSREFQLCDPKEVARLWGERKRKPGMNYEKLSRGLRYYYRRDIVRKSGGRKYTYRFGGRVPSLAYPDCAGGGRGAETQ

The target of another assay is T3, ETV3L (UniProt Q6ZN32).
T3 sequence: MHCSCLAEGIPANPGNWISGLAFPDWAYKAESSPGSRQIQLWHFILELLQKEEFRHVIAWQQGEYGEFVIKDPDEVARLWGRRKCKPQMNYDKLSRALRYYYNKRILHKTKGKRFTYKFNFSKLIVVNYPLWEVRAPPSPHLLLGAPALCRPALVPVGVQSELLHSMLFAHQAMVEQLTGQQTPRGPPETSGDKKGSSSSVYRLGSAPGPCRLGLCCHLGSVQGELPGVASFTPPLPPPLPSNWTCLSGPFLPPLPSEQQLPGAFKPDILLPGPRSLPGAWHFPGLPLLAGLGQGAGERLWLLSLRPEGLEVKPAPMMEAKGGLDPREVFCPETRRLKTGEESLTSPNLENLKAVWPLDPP

The target of another assay is T4, EHF (UniProt Q9NZC4).
T4 sequence: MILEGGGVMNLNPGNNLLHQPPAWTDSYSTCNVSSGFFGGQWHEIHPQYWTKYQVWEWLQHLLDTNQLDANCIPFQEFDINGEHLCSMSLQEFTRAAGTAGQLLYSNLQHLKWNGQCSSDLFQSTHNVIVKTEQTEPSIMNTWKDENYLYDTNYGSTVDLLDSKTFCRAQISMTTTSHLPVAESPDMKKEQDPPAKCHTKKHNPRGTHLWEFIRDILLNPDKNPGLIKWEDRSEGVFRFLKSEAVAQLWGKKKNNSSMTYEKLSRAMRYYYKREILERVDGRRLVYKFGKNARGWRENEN

Turning to AGGGAA, the binding signal in the assay with FLI1 came to 0.901; with ETV5, 0.989; with ELF4 it was 0.864; with ETV2, 0.914; in the assay with ETV3L, 0.992.
Consider GTACAG, for which the binding signal was determined as 0.97 with FLI1; 0.921 with EHF; 0.924 with ETV5; 0.995 in the assay with ELF4; 0.896 with ETV2; 0.937 with ETV3L.
On to TAGAAC, for which the binding signal with FLI1 was determined as 0.998; in the assay with EHF, 0.977; with SPIB, 0.866; with ETV5, 0.946; with ELF4 it was 0.982; with ETV2, 0.903. For the same sequence, the binding signal with ETV3L was found to be 0.954.
In the case of AGGCTT, the binding signal came out at 0.988 with FLI1; 0.975 in the assay with EHF; 0.933 with SPIB; 0.991 with ETV5; 0.963 with ELF4; 0.935 with ETV2. For the same sequence, the binding signal in the assay with ETV3L was 0.969.
Take AGGTAA: the binding signal with FLI1 turned out to be 0.942; in the assay with EHF it was 0.876; with SPIB it was 0.961; in the assay with ETV5 it was 0.965; in the assay with ELF4, 0.916; with ETV2, 0.918. Also, in the assay with ETV3L, the binding signal amounted to 0.903.
Regarding GGAATA, the binding signal stood at 0.99 with FLI1; 0.931 with EHF; 0.923 in the assay with SPIB; 0.89 with ETV5; 0.874 with ELF4; 0.947 with ETV2. Besides, the binding signal in the assay with ETV3L is 0.888.
For TCAGAC, the binding signal with FLI1 was determined as 0.91; with EHF, 0.89; with SPIB it was 0.834; with ETV5 it was 0.808; with ELF4, 0.919; in the assay with ETV2, 0.943. The sequence also gave a binding signal with ETV3L of 0.932.
Take GCGTCA: the binding signal amounted to 0.927 in the assay with FLI1; 0.893 with EHF; 0.888 with SPIB; 0.902 in the assay with ETV5; 0.952 in the assay with ELF4; 1.06 with ETV2. In the assay with ETV3L, this sequence returned a binding signal of 0.929.
As to TTAGAG, the binding signal with FLI1 stood at 0.941; with EHF it was 0.882; with SPIB, 0.891; with ETV5, 0.823; in the assay with ELF4 it was 0.924; in the assay with ETV2 it was 1.01. The sequence also yielded a binding signal with ETV3L of 0.927.
Consider AGGGAT, for which the binding signal in the assay with FLI1 was found to be 0.806; in the assay with EHF, 0.837; with SPIB it was 0.763; with ETV5, 0.757; with ELF4, 0.873; with ETV2, 0.715. Besides, the binding signal with ETV3L was 0.816.
On to GTAGCG, for which the binding signal with FLI1 was found to be 0.908; with EHF it was 0.883; with SPIB, 0.887; with ETV5, 0.92; in the assay with ELF4, 0.89; in the assay with ETV2 it was 0.94. This sequence displayed a binding signal in the assay with ETV3L of 0.875.
Take TGGCGC: the binding signal with FLI1 stood at 0.994; with EHF, 0.922; with SPIB, 0.928; with ETV5, 0.853; with ELF4, 0.944; in the assay with ETV2, 0.743. Also, the binding signal in the assay with ETV3L was 0.999.
With GAAGGT, the binding signal in the assay with FLI1 amounted to 0.806; with EHF, 0.881; with SPIB, 0.924; with ETV5 it was 0.889; with ELF4, 0.816; with ETV2, 0.775. The sequence also showed a binding signal with ETV3L of 0.848.
For TAGAGA, the binding signal in the assay with FLI1 is 0.813; with EHF it was 0.838; with SPIB, 0.766; in the assay with ETV5, 0.858; with ELF4, 0.845; in the assay with ETV2 it was 0.917. The sequence also registered a binding signal in the assay with ETV3L of 0.804.
Regarding CTTGAG, the binding signal in the assay with FLI1 came out at 1.08; in the assay with EHF it was 0.943; with SPIB it was 0.906; with ETV5 it was 0.948; with ELF4, 0.979; with ETV2 it was 0.978. Further, in the assay with ETV3L, the binding signal turned out to be 0.887.
In the case of GAGCTT, the binding signal with FLI1 was 0.958; in the assay with EHF, 0.987; with SPIB it was 0.913; with ETV5 it was 1.04; with ELF4, 0.891; with ETV2, 0.948. Moreover, in the assay with ETV3L, the binding signal amounted to 0.89.
As to GACCAA, the binding signal in the assay with FLI1 is 0.942; with EHF, 0.981; with SPIB, 0.914; with ETV5 it was 0.929; with ELF4, 0.994; in the assay with ETV2 it was 0.999. In the assay with ETV3L, this sequence registered a binding signal of 0.95.
As for CCGTTA, the binding signal is 0.932 with FLI1; 0.897 with EHF; 0.986 with SPIB; 0.924 with ETV5; 0.894 with ELF4; 1.05 with ETV2. Also, the binding signal with ETV3L was 0.865.
Regarding AGGAAT, the binding signal is 0.777 with FLI1; 0.819 with EHF; 0.758 with SPIB; 0.845 with ETV5; 0.782 with ELF4; 0.748 with ETV2. The same sequence gave a binding signal with ETV3L of 0.789.
For the sequence GTTTAG, the binding signal with FLI1 was found to be 0.79; in the assay with EHF, 0.843; in the assay with SPIB, 0.896; in the assay with ETV5, 0.838; in the assay with ELF4, 0.815; with ETV2, 0.881. This sequence also returned a binding signal in the assay with ETV3L of 0.804.
CGGATT: the binding signal in the assay with FLI1 was determined as 0.965; with EHF, 0.859; with SPIB it was 0.963; in the assay with ETV5, 0.952; with ELF4, 0.898; in the assay with ETV2 it was 0.828. Further, the binding signal in the assay with ETV3L came out at 0.959.
